PubChem BioAssay AID1259289 | Sanger Institute | 2017
In all, the deposit lists 794 reagents; this is an unselected part. Of all reagents, 16 (2%) got an active call. 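Active marks cell loss from silencing alone; drug synergy shows only in the synergy scores, not the calls.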 Viability is capped at 1. Not all columns of the deposit are shown. No sequences are given here. Not given: the amount of reagent, the time to read-out.

- Assay: 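Kinases that bowel cancer cells need to survive, with or without BYL719, cetuximab, trametinib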 (primary screen)
- Cells: human LS513 colorectal cancer cells
- Reagent: siRNA pool against human genes
- Challenge: anchor drug BYL719 at 1 µM, cetuximab at 5 µg/ml or trametinib at 10 nM, or DMSO vehicle alone; exposure time not given
- Measured: 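Cell survival as a fraction of the non-targeting pool, replicate means; robust z-score for silencing alone under DMSO; synergy score for each of BYL719, cetuximab and trametinib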
- Reading the numbers: robust z-score, siRNA alone (DMSO): higher = more viable cells; strongly negative means essential; viability with DMSO vs control: higher = more viable cells; synergy score with BYL719: higher = stronger combined killing with BYL719; synergy score with cetuximab: higher = stronger combined killing with cetuximab
- Hit rule: 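a gene counts as active if its DMSO-only robust z-score falls under -3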
- Calls: active = essential (knock-down alone); inactive = not essential

no.	Target gene	robust z-score, siRNA alone (DMSO)	viability with DMSO vs control (fraction of control)	synergy score with BYL719	synergy score with cetuximab	call
1	CSNK2A1	0.561	1	-0.134	-0.0968	inactive
2	CSNK1D	0.198	0.948	0.117	0.105	inactive
3	MARK2	0.561	1	-0.134	-0.0968	inactive
4	PRKAR2A	0.561	1	-0.134	-0.0223	inactive
5	GNAS	-2	0.637	0.194	0.0266	inactive
6	CDK4	0.561	1	0.0747	0.026	inactive
7	PIM3	0.561	1	-0.134	-0.0968	inactive
8	KSR1	-3.71	0.393	-0.161	-0.0337	active
9	PANK2	0.561	1	-0.134	-0.0968	inactive
10	MTOR	0.561	1	-0.0741	0.144	inactive

Next part, starting with the last 2 of the part before.
no.	Target gene	robust z-score, siRNA alone (DMSO)	viability with DMSO vs control (fraction of control)	synergy score with BYL719	synergy score with cetuximab	call
9	PANK2	0.561	1	-0.134	-0.0968	inactive
10	MTOR	0.561	1	-0.0741	0.144	inactive
11	PIK3CA	0.561	1	-0.134	-0.0386	inactive
12	KALRN	0.561	1	-0.134	0.089	inactive
13	ELF3	-0.476	0.853	-0.0632	0.0242	inactive
14	DGKG	0.561	1	-0.134	-0.0968	inactive
15	PI4K2A	0.561	1	-0.134	-0.0968	inactive
16	BUB1B	-0.941	0.787	-0.0274	-0.00372	inactive
17	CDK5	0.561	1	-0.134	-0.0968	inactive
18	TRPM6	0.561	1	-0.0737	-0.0431	inactive
19	CSNK1G3	0.561	1	-0.134	0.0353	inactive
20	MAP2K1	0.561	1	-0.0174	0.112	inactive
